# Source: PubChem BioAssay AID180 (DTP/NCI, 2004)
# The list shows only some results of the screen, not a fair sample: it is rich in T/C values a quarter to a half above the control, in often repeated tests (any T/C) and in doses without a T/C. Further doses and runs are listed elsewhere. T/C: endpoint of the treated group in % of that of the vehicle group. Schedule codes are those of the source, taken here to give the interval after Q, in days (D) or hours (H), and the number of doses after X. Some T/C values are followed by the survivors on the day toxicity was checked, most often the fifth; where none is given, no animal had died by that day. Some entries were tested several times; their values stand side by side, smallest first. Some entries give survivors of the animals treated and no T/C: the source holds a T/C of zero for them, seemingly a mark for toxic or unscored doses. Counts of survivors are from the toxicity check (mostly the fifth day) where no day follows; animals may have died later.
# Tested on: BDF1 mice, Adenocarcinoma 755 s.c., tumor weight T/C
# Assay: NCI In Vivo Anticancer Drug Screen. Data for tumor model Adenocarcinoma 755 (subcutaneous) in B6D2F1 (BDF1) mice
# Conditions: T/C endpoint: mean tumor weight, higher T/C = larger tumour; for T/C: evaluated on day 12
# Summary of the method: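 Values express treated (T) relative to vehicle-dosed control (C) animals, based on survival or tumour size measured after compound treatment of mice bearing a transplanted tumour.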
# [1] = dose: 100.0 mg/kg/injection, schedule: Q01DX011 (ip), vehicle: carboxymethylcellulose (CMC)
# [2] = dose: 200.0 mg/kg/injection, schedule: Q01DX011 (ip), vehicle: carboxymethylcellulose (CMC)
# [3] = dose: 400.0 mg/kg/injection, schedule: Q01DX011 (ip), vehicle: carboxymethylcellulose (CMC)
# [4] = dose: 16.0 mg/kg/injection, schedule: Q01DX011 (ip), vehicle: carboxymethylcellulose (CMC)
# [5] = dose: 60.0 mg/kg/injection, schedule: Q01DX011 (ip), vehicle: carboxymethylcellulose (CMC)
structure (smiles),measurement,setting,value
CN(C)c1nc(N)nc(Nc2ccc(Br)cc2)c1N=O,T/C,[1],133 % of control
same,survivor count,[1],6 of 10
same,T/C,[2],149 % of control
same,survivor count,[2],4 of 10
same,T/C,[3],140 % of control
same,survivor count,[3],6 of 10
Nc1nc(N)c(N=O)c(Nc2ccc(I)cc2)n1,T/C,"dose: 4.0 mg/kg/injection, schedule: Q01DX011 (ip), vehicle: carboxymethylcellulose (CMC)","38, 41, 47 [9 of 10 alive], 52, 66 % of control"
same,T/C,[4],"24, 39, 63 % of control [9 of 10 alive]"
same,survivor count,[4],2 of 10
same,survivor count,"dose: 64.0 mg/kg/injection, schedule: Q01DX011 (ip), vehicle: carboxymethylcellulose (CMC)",3 of 10
same,survivor count,"dose: 256.0 mg/kg/injection, schedule: Q01DX011 (ip), vehicle: carboxymethylcellulose (CMC)",0 of 10
CN(C)[C@@H]1C(=O)C(C(=O)NCNc2nc(=S)c3[nH]cnc3[nH]2)=C(O)[C@@]2(O)C(=O)C3=C(O)c4c(O)cccc4[C@@](C)(O)[C@H]3C[C@@H]12,survivor count,[5],6 of 10
[Br][Hg][CH2]C1COC([CH2][Hg][Br])CO1 (configuration not stated),survivor count,"dose: 50.0 mg/kg/injection, schedule: Q01DX011 (ip), vehicle: carboxymethylcellulose (CMC)",3 of 10
same,survivor count,[1],0 of 10
same,survivor count,[2],0 of 10
COc1cc([C@@H]2c3cc4c(cc3[C@H](O)[C@H]3COC(=O)[C@H]23)OCO4)cc(OC)c1OC,T/C,"dose: 0.13 mg/kg/injection, schedule: Q01DX011 (ip), vehicle: carboxymethylcellulose (CMC)",135 % of control
CC(=O)OC1CCC(C2CCCCC2)CC1 (configuration not stated),T/C,"dose: 15.0 mg/kg/injection, schedule: Q01DX011 (ip), vehicle: saline",134 % of control
same,T/C,"dose: 113.0 mg/kg/injection, schedule: Q01DX011 (ip), vehicle: saline",128 % of control [8 of 10 alive]
CCCCN(C)/N=N/c1nc[nH]c1C(N)=O,survivor count,"dose: 90.0 mg/kg/injection, schedule: Q01DX011 (ip), vehicle: carboxymethylcellulose (CMC)",5 of 10
same,survivor count,[1],1 of 10
same,survivor count,"dose: 125.0 mg/kg/injection, schedule: Q01DX011 (ip), vehicle: carboxymethylcellulose (CMC)",0 of 10
CCCn1cnc2c(SCc3ccccc3)nc(N)nc21,survivor count,"dose: 125.0 mg/kg/injection, schedule: Q01DX011 (ip), vehicle: methylcellulose (MC)",6 of 10
CC1CCOS(=O)O1 (configuration not stated),survivor count,"dose: 80.0 mg/kg/injection, schedule: Q01DX011 (ip), vehicle: carboxymethylcellulose (CMC)",3 of 10
Nc1[nH]c(=S)ncc1NC=O,T/C,[5],131 % of control
C=C1CN(CC)CCO1,survivor count,"dose: 200.0 mg/kg/injection, schedule: Q01DX011 (ip), vehicle: other",0 of 10
O=C(OCC1OC(n2cnc3c(=O)[nH]c(=O)[nH]c32)C(OC(=O)c2ccccc2)C1OC(=O)c1ccccc1)c1ccccc1 (configuration not stated),T/C,"dose: 120.0 mg/kg/injection, schedule: Q01DX011 (ip), vehicle: carboxymethylcellulose (CMC)",130 % of control
CCCCNc1cc(=O)[nH]c(N)n1,survivor count,"dose: 165.0 mg/kg/injection, schedule: Q01DX011 (ip), vehicle: methylcellulose (MC)",6 of 10
CCOC(=O)c1cc[c]([Sb](=[O])([OH])[OH])cc1,T/C,"dose: 25.0 mg/kg/injection, schedule: Q01DX011 (ip), vehicle: methylcellulose (MC)",140 % of control
same,survivor count,"dose: 30.0 mg/kg/injection, schedule: Q01DX011 (ip), vehicle: carboxymethylcellulose (CMC)",6 of 10
same,survivor count,[5],2 of 10
same,survivor count,"dose: 200.0 mg/kg/injection, schedule: Q01DX011 (ip), vehicle: methylcellulose (MC)",2 of 10
CCN(CC)CCOc1ccc(C2=C(c3ccccc3)CCc3cc(OC)ccc32)cc1,survivor count,"dose: 100.0 mg/kg/injection, schedule: Q01DX011 (sc), vehicle: steroid suspending solution",3 of 10
